Taken from: PubChem BioAssay AID1224826 (NIAID, 2016)

Purpose: 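Knock-downs that raise or lower Tnf reporter signal after endotoxin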 (primary screen)
System: RAW264.7 G9 macrophages from mouse bearing reporters for p65 (GFP) and the Tnf promoter (mCherry)
Knock-down reagent: siRNA pool against mouse genes, 100 nM
Duration: 16 h of LPS stimulation, after 2 days of siRNA transfection
Treatment: bacterial lipopolysaccharide (Salmonella minnesota R595), 10 ng/ml
Measurement: 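Imaged Tnf reporter mCherry in nuclei, minus background, normalised per plate to the median and expressed as robust z-scores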
Scale: Tnf reporter robust z-score: higher = stronger Tnf promoter reporter signal after LPS
Rule for the call: 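a well counts as active at a score of -1.3 or below (Tlr4 knock-down control median) or above 3 (raised signal); controls and wells holding fewer than 50 cells are excluded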
Meaning of the calls: active = Tnf reporter clearly lowered or raised; inactive = no clear change in Tnf reporter
This is an unselected part of about 17,000 reagents. About 1,110 of all reagents (6.6%) count as active. 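Active means lowered or raised reporter signal; replicate intensities are raw and not normalised per plate.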 A number with no mark means an inactive call. Further read-outs or replicates are left out here. No sequences are given here.

What did the screen give for Efnb1 (GeneID 13641)?
Tnf reporter robust z-score: 0.14; fewer than 50 cells in well: enough cells in well

Which result is listed for Cd244a (GeneID 18106)?
Tnf reporter robust z-score: 0.21; fewer than 50 cells in well: enough cells in well

For Pak6 (GeneID 214230), how do the results read?
Tnf reporter robust z-score: -0.61; fewer than 50 cells in well: enough cells in well

Which result is listed for Vwa2 (GeneID 240675)?
Tnf reporter robust z-score: -1.12; fewer than 50 cells in well: enough cells in well

What did the screen give for Raly (GeneID 19383)?
Tnf reporter robust z-score: 0.23; fewer than 50 cells in well: enough cells in well

How did the screen score Slc17a7 (GeneID 72961)?
fewer than 50 cells in well: fewer than 50 cells per well; well left out of calls

Which result is listed for Or2y15 (GeneID 258465)?
Tnf reporter robust z-score: -0.76; fewer than 50 cells in well: enough cells in well

With Phkb (GeneID 102093), what does the deposit list?
Tnf reporter robust z-score: -0.41; fewer than 50 cells in well: enough cells in well

A few values from the entries so far:
Cd244a (GeneID 18106), fewer than 50 cells in well = enough cells in well
Phkb (GeneID 102093), fewer than 50 cells in well = enough cells in well

The listing continues.
What is on record for Btf3l4 (GeneID 70533)?
fewer than 50 cells in well: fewer than 50 cells per well; well left out of calls

Which result is listed for Mesp1 (GeneID 17292)?
Tnf reporter robust z-score: -0.78; fewer than 50 cells in well: enough cells in well

Which result is listed for Capza1b (GeneID 66747)?
Tnf reporter robust z-score: -0.58; fewer than 50 cells in well: enough cells in well

For Or6c201 (GeneID 258862), what does the deposit list?
fewer than 50 cells in well: fewer than 50 cells per well; well left out of calls
